Binding data for 1 molecule are collected here from patent US20030073199A1 (SCHERING, published 2003).

In this experiment the target is prokaryotic recombinant histidine-tagged AK155 (His-AK155) (human) (UniProt Q9NPH9). Briefly: SDS-PAGE with and without heating in mercaptoethanol (about 36 kDa against about 19 kDa).

Results are given in words; binding and its absence hold for the method and conditions named. Some binding calls cover weakened binding; strength is not graded here. Where a sequence is shown, tags or fusion partners need not be part of it.

B1: prokaryotic recombinant histidine-tagged AK155 (His-AK155) (ligand, not shown: small tags and cut ends)
chain: KHKQSSFTKSCYPRGTLSQAVDALYIKAAWLKATIPEDRIKNIRLLKKKTKKQFMKNCQFQEQLLSFFMEDVFGQLQLQGCKKIRFVEDFHSLRQKLSHCISCASSAREMKSITRMKRIFYRIGNKGIYKAISELDILLSWIKKLLESSQ
For B1, the binding result is reported as “binds”.
